According to US9174960B2, “Compounds useful against kinetoplastideae parasites” (CENTRE NATIONAL DE LA RECHERCHE SCIENTIFIQUE, priority 2009, dated 2015):
For some of these results: At least one compound was matched to its structure with a doubt left. Some of these results come from one statement about several compounds together.

Legend:
T. b. rhodesiense = details: cited from earlier work
T. b. gambiense = details: both stages of T. b. gambiense infection; cited from earlier work
MRC-5SV2 cells = test: Cytotoxicity against human cell lines (resazurin); details: read-out: IC50, reduction in cell growth/viability, 3 d incubation, cytotoxic reference compounds

Compound | efficacy against infection (in words) (T. b. rhodesiense) | efficacy against infection (in words) (T. b. gambiense) | IC50 (MRC-5SV2 cells)
NCCCC(N)(C(=O)O)C(F)F (stereo not shown) [Eflornithine] | not against T. b. rhodesiense | effective | 
CC(=O)O[C@H]1C(=O)[C@@]2(C)[C@H]([C@H](OC(=O)c3ccccc3)[C@]3(O)C[C@H](OC(=O)[C@H](O)[C@@H](NC(=O)c4ccccc4)c4ccccc4)C(C)=C1C3(C)C)[C@]1(OC(C)=O)CO[C@@H]1C[C@@H]2O [paclitaxel, reference compound] |  |  | < 10 nM
CC[C@]1(O)C[C@@H]2CN(CCc3c([nH]c4ccccc34)[C@@](C(=O)OC)(c3cc4c(cc3OC)N(C)[C@H]3[C@@](O)(C(=O)OC)[C@H](OC(C)=O)[C@]5(CC)C=CCN6CC[C@]43[C@@H]65)C2)C1 [vinblastine, reference compound] |  |  | < 10 nM
